Reference: US8841274B2, “Protein arginine N-methyltransferase-5 method of cancer treatment” (priority 2009, dated 2014)

System: U2OS cells
Experiment: Cyclohexamide half-life assay
Format: cell-based
Conditions: 100 μg/ml cyclohexamide, 0-6 h, n=2

Which half-life does the source give for “KKK: methylation-defective E2F-1 protein containing the mutations R109K, R111K and R113K” here?
Its half-life is 1.25 h.

For “wild-type E2F-1: E2F-1 protein, SEQ ID NO:3, used as GST fusion or HA-tagged expression vector”, which half-life is on record?
The half-life was 0.417 h.

“KK: methylation-defective E2F-1 protein containing the mutations R111K and R113K” was tested. Which half-life did it give?
The half-life was 1.25 h.
